Residue numbers refer to the chain shown, from its start. These are yes or no findings as the source states them, for the method shown. For part of these data: Binding seen in cells or lysates may run through a third protein. Some results given as binding are weak or reduced against the parent protein; the word gives no strength. Tags and fused reporters may be left off the sequences shown.
Key:
[1] = target: T1, H. sapiens iASPP C-terminus, iASPP(602-828), fused to an HA tag and a HaloTag (human) (UniProt Q8WUF5); assay: SEC; fluorescent size exclusion chromatography of lysates of cotransfected HEK293T cells; HaloTagged iASPP C-terminus labelled with JFX549; Superdex 200 Increase 10/300 GL, TBS, 4°C
T1 sequence (chain, JFX549 dye on the HaloTag (fluorescent size exclusion chromatography only)): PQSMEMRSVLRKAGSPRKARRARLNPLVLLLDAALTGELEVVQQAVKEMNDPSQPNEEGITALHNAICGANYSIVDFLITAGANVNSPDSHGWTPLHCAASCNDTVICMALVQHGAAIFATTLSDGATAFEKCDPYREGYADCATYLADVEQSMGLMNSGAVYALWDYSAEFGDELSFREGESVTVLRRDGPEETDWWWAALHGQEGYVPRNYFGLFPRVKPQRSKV

The chains behind the UniProt entries cited, without tags or fusion partners.
UniProt P62137: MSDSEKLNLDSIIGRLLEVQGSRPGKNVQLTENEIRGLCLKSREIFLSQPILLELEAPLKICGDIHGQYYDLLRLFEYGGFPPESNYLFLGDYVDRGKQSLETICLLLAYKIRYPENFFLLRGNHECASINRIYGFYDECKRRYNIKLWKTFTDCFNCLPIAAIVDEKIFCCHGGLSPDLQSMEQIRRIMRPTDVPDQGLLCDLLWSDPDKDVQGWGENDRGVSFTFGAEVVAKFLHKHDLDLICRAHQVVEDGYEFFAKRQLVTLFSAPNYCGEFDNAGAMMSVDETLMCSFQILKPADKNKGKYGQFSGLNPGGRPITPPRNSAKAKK

[2] = target: T2, H. sapiens iASPP C-terminus, iASPP(602-828, H665Y), fused to an HA tag and a HaloTag (human) (UniProt Q8WUF5); assay: as above
T2 sequence (chain, JFX549 dye on the HaloTag (fluorescent size exclusion chromatography only)): T1 sequence (chain, JFX549 dye on the HaloTag (fluorescent size exclusion chromatography only)) with H64Y

[3] = target: T3, H. sapiens iASPP C-terminus, iASPP(602-828, N657K), fused to an HA tag and a HaloTag (human) (UniProt Q8WUF5); assay: as above
T3 sequence (chain, JFX549 dye on the HaloTag (fluorescent size exclusion chromatography only)): T1 sequence (chain, JFX549 dye on the HaloTag (fluorescent size exclusion chromatography only)) with N56K

[4] = target: T1, H. sapiens iASPP C-terminus, iASPP(602-828), fused to an HA tag and a HaloTag (human); assay: pull-down; HaloTag purification (HaloLink magnetic beads, release by TEV) from HEK293T cells cotransfected with HA-PP1 and HA- and HaloTagged iASPP C-terminus; quantitative HA blot of both
[5] = target: T2, H. sapiens iASPP C-terminus, iASPP(602-828, H665Y), fused to an HA tag and a HaloTag (human); assay: as above
[6] = target: T3, H. sapiens iASPP C-terminus, iASPP(602-828, N657K), fused to an HA tag and a HaloTag (human); assay: as above

Measured: binding

PP1 (M. musculus PPP1CA) fused to an HA tag (from UniProt P62137 1-330) (enzyme)
binds: all assays above

Reference: publication PMC12543280
